These are yes or no findings as the source states them, for the method shown. In cells and extracts the contact can be indirect. Some entries that bind do so weakly or less than the wild type. Tags and fused reporters may be left off the sequences shown.

Assay [1] deals with CsoS1A from H. neapolitanus with GFP10 or GFP11 at the N-terminus (H. neapolitanus) (UniProt P45689). Nature of the assay: split reporter; tripartite GFP in E. coli BL21(DE3) cells; single vector, POI-10 and POI-11 on a bicistronic mRNA under T7p, GFP1-9 independent; IPTG 10 uM from the start, 37°C; Fmax relative to the RMM reference.
In assay [2] the target is CcmL BMC-P from Synechocystis sp. PCC 6803 fused to GFP10 or GFP11 (Synechocystis sp. PCC 6803) (UniProt P72759). Described as above.
For assay [3], the target named is CcmK3 from Synechocystis sp. PCC 6803 fused to GFP10 or GFP11 (CcmK3-10/11) (Synechocystis sp. PCC 6803) (UniProt P73406). The assay can be described thus: split reporter; tripartite GFP in E. coli BL21(DE3) cells; single vector, all three partners on a single tricistronic mRNA; IPTG 10 uM from the start, 37°C.
Assay [4] shares this target. Nature of the assay: split reporter; tripartite GFP in E. coli BL21(DE3) cells; single vector, POI-10 and POI-11 on a bicistronic mRNA under T7p, GFP1-9 independent; IPTG 10 uM from the start, 37°C; Fmax relative to the RMM reference.
Assay [5] has the same target. The assay can be described thus: split reporter; tripartite GFP in E. coli BL21(DE3) cells; bicistronic POI-10/11 under constitutive promoters (J23103, J23105, J23106, J23109, J23110, J23115), GFP1-9 under T7p; IPTG at 0, 4, 6 or 8 hours of culture.
For assay [6] the target is unchanged. Nature of the assay: split reporter; tripartite GFP in E. coli BL21(DE3) cells; single pET26b vector coding POI-GFP10, POI-GFP11 and GFP1-9 (three independent transcripts, T7p); IPTG 10 uM from the start, 37°C, about 16 h; Fmax from sigmoidal fits, relative to the RMM reference.
The target of assay [7] is EutM from E. coli fused to GFP10 or GFP11 (EutM-10/11) (E. coli) (UniProt P0ABF4). The assay can be described thus: split reporter; tripartite GFP in E. coli BL21(DE3) cells; single vector, POI-10 and POI-11 on a bicistronic mRNA under T7p, GFP1-9 independent; IPTG 10 uM from the start, 37°C; Fmax relative to the RMM reference.
For assay [8], the target named is T1, CcmK2 from Synechocystis sp. PCC 6803, GFP10/11-tagged (Synechocystis sp. PCC 6803) (UniProt P72761).
T1 sequence: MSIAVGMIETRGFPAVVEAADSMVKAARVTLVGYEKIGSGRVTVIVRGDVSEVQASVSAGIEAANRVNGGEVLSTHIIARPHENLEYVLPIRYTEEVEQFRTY
Described as above.

B1: CsoS1A from H. neapolitanus with GFP10 or GFP11 at the N-terminus (protein, UniProt P45689 1-98)
chain: MADVTGIALGMIETRGLVPAIEAADAMTKAAEVRLVGRQFVGGGYVTVLVRGETGAVNAAVRAGADACERVGDGLVAAHIIARVHSEVENILPKAPQA
As to B1, the binding entry in assay [1] was “binds”.

B2: CcmL BMC-P from Synechocystis sp. PCC 6803 fused to GFP10 or GFP11 (protein, UniProt P72759 1-100)
chain: MQLAKVLGTVVSTSKTPNLTGVKLLLVQFLDTKGQPLERYEVAGDVVGAGLNEWVLVARGSAARKERGNGDRPLDAMVVGIIDTVNVASGSLYNKRDDGR
For the molecule B2, the binding entry in assay [2] is listed as “binds”.

B3: CcmK3 from Synechocystis sp. PCC 6803 fused to GFP10 or GFP11 (CcmK3-10/11) (protein, UniProt P73406 1-103)
chain: MPQAVGVIQTLGFPSVLAAADAMLKGGRVTLVYYDLAERGNFVVAIRGPVSEVNLSMKMGLAAVNESVMGGEIVSHYIVPNPPENVLAVLPVEYTEKVARFRT
For the molecule B3, the binding entry in assay [3], in assay [4], in assay [5] and in assay [6] was “no binding” in each case.

B4: EutM from E. coli fused to GFP10 or GFP11 (EutM-10/11) (protein, UniProt P0ABF4 1-97)
chain: MEALGMIETRGLVALIEASDAMVKAARVKLVGVKQIGGGLCTAMVRGDVAACKAATDAGAAAAQRIGELVSVHVIPRPHGDLEEVFPIGLKGDSSNL
In the case of B4, in assay [7], the binding entry is on record as “binds”.

B5: CcmK1 from Synechocystis sp. PCC 6803, GFP10/11-tagged (protein, UniProt P72760 1-111)
chain: MSIAVGMIETLGFPAVVEAADSMVKAARVTLVGYEKIGSGRVTVIVRGDVSEVQASVTAGIENIRRVNGGEVLSNHIIARPHENLEYVLPIRYTEAVEQFREIVNPSIIRR
As for B5, the binding entry in assay [8] is on record as “binds”.

These data come from paper PMC10681173.
